From article PMC10427625, “Structural basis for negative regulation of the Escherichia coli maltose system” (Nature Communications, 2023)
Substitutions are numbered along the chain they refer to. Names and notes keep the numbering of the source. These are yes or no findings as the source states them, for the method shown. Where a sequence is shown, tags or fusion partners need not be part of it.

B1: MalT (wild type), N-terminally His-tagged (natural protein, Escherichia coli, UniProt P06993 1-901, looked up)
chain: MLIPSKLSRPVRLDHTVVRERLLAKLSGANNFRLALITSPAGYGKTTLISQWAAGKNDIGWYSLDEGDNQQERFASYLIAAVQQATNGHCAICETMAQKRQYASLTSLFAQLFIELAEWHSPLYLVIDDYHLITNPVIHESMRFFIRHQPENLTLVVLSRNLPQLGIANLRVRDQLLEIGSQQLAFTHQEAKQFFDCRLSSPIEAAESSRICDDVSGWATALQLIALSARQNTHSAHKSARRLAGINASHLSDYLVDEVLDNVDLATRHFLLKSAILRSMNDALITRVTGEENGQMRLEEIERQGLFLQRMDDTGEWFCYHPLFGNFLRQRCQWELAAELPEIHRAAAESWMAQGFPSEAIHHALAAGDALMLRDILLNHAWSLFNHSELSLLEESLKALPWDSLLENPQLVLLQAWLMQSQHRYGEVNTLLARAEHEIKDIREDTMHAEFNALRAQVAINDGNPDEAERLAKLALEELPPGWFYSRIVATSVLGEVLHCKGELTRSLALMQQTEQMARQHDVWHYALWSLIQQSEILFAQGFLQTAWETQEKAFQLINEQHLEQLPMHEFLVRIRAQLLWAWARLDEAEASARSGIEVLSSYQPQQQLQCLAMLIQCSLARGDLDNARSQLNRLENLLGNGKYHSDWISNANKVRVIYWQMTGDKAAAANWLRHTAKPEFANNHFLQGQWRNIARAQILLGEFEPAEIVLEELNENARSLRLMSDLNRNLLLLNQLYWQAGRKSDAQRVLLDALKLANRTGFISHFVIEGEAMAQQLRQLIQLNTLPELEQHRAQRILREINQHHRHKFAHFDENFVERLLNHPEVPELIRTSPLTQREWQVLGLIYSGYSNEQIAGELEVAATTIKTHIRNLYQKLGVAHRQDAVQHAQQLLKMMGYGV
notes: Purified with 0.1 mM ADP or 0.4 mM ATP; the elution at 103 kDa fits the whole protein; In PDB 8BOB only residues 1-423 are well defined; also called WT MalT; MalT WT; source: E. coli BL21 (DE3) ΔmalT220, purified (Ni Sepharose, gel filtration)
B2: MalT-R143A, N-terminally His-tagged (natural protein, Escherichia coli, UniProt P06993 1-901, looked up)
chain: B1 chain with R143A
notes: MalT of Escherichia coli, variant of plasmid pOM206 made by site-directed mutagenesis; source: E. coli BL21 (DE3) ΔmalT220, purified (Ni Sepharose, gel filtration)
B3: MalT-R173A, N-terminally His-tagged (natural protein, Escherichia coli, UniProt P06993 1-901, looked up)
chain: B1 chain with R173A
notes: as for B2
B4: MalT-R143A/R173A, N-terminally His-tagged (protein, UniProt P06993 1-901)
chain: B1 chain with R143A, R173A
B5: MalT-K6A, N-terminally His-tagged (protein, UniProt P06993 1-901)
chain: B1 chain with K6A
B6: MalT-R19A, N-terminally His-tagged (protein, UniProt P06993 1-901)
chain: B1 chain with R19A

Columns and labels:
[1] = molecular target: MalT (wild type), N-terminally His-tagged (Escherichia coli) (UniProt P06993); test: condition: only without maltotriose (0.4 mM ATP or 0.1 mM ADP); SEC; Superdex 200 Increase 10/300 GL, 4 °C, in the presence of ADP; MalT (buffer A, 0.1 mM ADP) and MalY (buffer TKCl, 10 μM PLP) each alone, or incubated at a 1:1 molar ratio on ice for 30 min and run in buffer TKCl with 0.1 mM ADP and 10 μM PLP; both purified
[2] = molecular target: T1, N-terminally GST-tagged MalY (Escherichia coli) (UniProt P23256); test: pull-down; GST-tagged MalY incubated with an excess of WT or mutant MalT on ice for 30 min, Glutathione Sepharose 4B, buffer TKCl with 0.1 mM ADP and 10 μM PLP; elution with 20 mM glutathione, SDS-PAGE, Coomassie; both purified
T1 sequence: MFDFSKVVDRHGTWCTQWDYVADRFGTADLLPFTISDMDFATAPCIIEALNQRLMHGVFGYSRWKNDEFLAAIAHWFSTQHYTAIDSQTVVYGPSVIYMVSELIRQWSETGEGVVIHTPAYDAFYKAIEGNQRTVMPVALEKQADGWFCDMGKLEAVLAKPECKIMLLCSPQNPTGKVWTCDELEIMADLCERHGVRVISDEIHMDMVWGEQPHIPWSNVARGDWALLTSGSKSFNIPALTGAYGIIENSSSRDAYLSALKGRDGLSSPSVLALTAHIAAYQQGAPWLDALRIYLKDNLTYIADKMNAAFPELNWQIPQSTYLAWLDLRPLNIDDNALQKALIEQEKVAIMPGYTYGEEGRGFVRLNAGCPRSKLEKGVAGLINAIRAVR

[3] = molecular target: MalT-K6A, N-terminally His-tagged (Escherichia coli) (UniProt P06993); test: SEC; Superose 6 Increase 10/300 GL, 4 °C; MalT pre-incubated at 20 °C for 20 min in buffer I; run in buffer E with 1 mM maltotriose and 0.4 mM ATP; self-association of MalT; both purified
[4] = molecular target: MalT-R19A, N-terminally His-tagged (Escherichia coli) (UniProt P06993); test: as above

| Binder | binding [2] | further results |
| --- | --- | --- |
| B1 |  | binding [1]: no binding |
| B2 | no binding |  |
| B3 | no binding |  |
| B4 | no binding |  |
| B5 |  | binding [3]: no binding |
| B6 |  | binding [4]: no binding |
